Assay results published in PubChem BioAssay AID1910 (Broad Institute, 2009).
In all, about 300,000 compounds went through this assay and about 950 (0.32%) were called active. The inconclusive results got no clear call from the source; some entries with a clear call stand among them for comparison.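 How the source made its calls: active means mean activation of at least 10% of the iron chelator positive control signal, with at least half of replicates also reaching 10%; inconclusive means mean and replicate majority disagree about reaching 10%; inactive means mean and most replicates under 10%.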

Experiment: HIF pathway transcriptional activators, primary screen, cell-based, U2OS HRE-luciferase, luminescence (AID 1910)
Settings: U2OS HRE-luciferase reporter, hits give high values, screened at 7.5 µM (by protocol), normalized: DMSO 0%, desferrioxamine 100%
With `CCOC(=O)c1c(NC(=O)CCC(=O)O)sc2c1CCCCC2` the activation was inconclusive: 6.4%.
For `Cc1cc(C)c(NS(=O)(=O)c2ccc3c(c2)NC(=O)CCS3)c(C)c1`, the activation was inconclusive: 8.38%.
With `Cc1ccc(OC(C)C(=O)N2CC(=O)Nc3ccccc32)cc1` (configuration not stated) the activation was inconclusive: 5.09%.
With `COc1cccc(-n2c(SCC(=O)N3CCOCC3)nc3c([nH]c4ccccc43)c2=O)c1` the activation was active: 457%.
In the case of `Cc1snc(SCC(=O)N/N=C(\N)COc2cccc(C(F)(F)F)c2)c1C#N`, the activation is reported as inconclusive: 5.28%.
For `C[C@@H](C(=O)Nc1ccc2c(c1)OCCO2)n1c(=O)[nH]c2ccccc2c1=O`, the activation was inconclusive: 8.47%.
With `CNc1c2c(nn1C)CCCC2` the activation was inconclusive: 5.87%.
For `COc1ccc(-c2nnc(-c3cc4c(ccc5ccccc54)oc3=O)o2)cc1`, the activation was inconclusive: 6.47%.
For `Cc1ccc(/C(=N/Nc2ncnc3ccccc23)C(=O)O)cc1`, the activation was inconclusive: 9.41%.
In the case of `COc1ccc2oc(C(=O)OCC(=O)Nc3ccccc3OC)c(C)c2c1`, the activation is reported as inconclusive: 6.73%.
In the case of `Cc1cc(NC(=O)CCN2C(=O)/C(=C\c3ccccc3)SC2=S)no1`, the activation is reported as inconclusive: 7.68%.
In the case of `CCOc1nc(NCCN2CCOCC2)nc(Nc2ccc(C)cc2)n1`, the activation is reported as active: 296%.
For `C[C@@H]1O[C@@H](OC[C@H]2O[C@@H](Oc3c(-c4ccc(O)cc4)oc4cc(O)cc(O)c4c3=O)[C@H](O)[C@@H](O)[C@@H]2O)[C@H](O)[C@H](O)[C@H]1O`, the activation was inconclusive: 9.03%.
For `CCc1ccc(S(=O)(=O)NCc2csc(C)n2)cc1`, the activation was inactive: -59.9%.
With `COCCCNC(=S)N(CCCN(C)C)Cc1cc2cc3c(cc2[nH]c1=O)OCCO3` the activation was inactive: -0.547%.
With `Cc1ccc(-c2cc(N)n(-c3ccc(F)cc3)n2)cc1` the activation was inconclusive: 7.82%.
In the case of `O=C(NCC(=O)N(Cc1ccco1)C(C(=O)NC1CCCCC1)c1cccnc1)c1cccs1` (configuration not stated), the activation is reported as inconclusive: 3.37%.
For `CCN(CC)C(=O)c1sc2c(c1C)c(=O)n(-c1ccc(OC)cc1OC)c(=O)n2CC(=O)c1ccccc1`, the activation was inconclusive: 5.29%.
In the case of `Cc1cccc(NC(=O)CN2CCc3cc4c(cc3C2)OCCCO4)c1`, the activation is reported as inactive: 0.122%.
With `CCC(C)NCCOc1ccc(C)cc1[N+](=O)[O-]` (configuration not stated) the activation was inconclusive: 4.16%.
With `COc1cc(-c2cc(=O)c3c(O)cc(O)cc3o2)ccc1O` the activation was inactive: 2.65%.
With `O=S(=O)(NCc1nnc2c(C(F)(F)F)cc(Cl)cn12)c1ccccc1` the activation was inconclusive: 7.3%.
For `O=C(NCCc1ccccc1)C1CCN(S(=O)(=O)c2ccc(-n3cnnn3)cc2)CC1`, the activation was inconclusive: 7.46%.
For `CCN(CCCNC(=O)CN(C)S(=O)(=O)c1ccc2c(c1)CCC(=O)N2)c1cccc(C)c1`, the activation was inactive: -0.453%.
For `O=C(N/N=C/c1cc(Cl)ccc1O)c1ccncc1`, the activation was active: 26.5%.
With `Cc1cccc(C(=O)O/N=C(\N)c2ccc(Cl)cc2)c1` the activation was inconclusive: 8.48%.
For `Cc1ccc(-c2nnn(CC(=O)N(Cc3cccs3)C(C(=O)NC3CCCCC3)c3ccco3)n2)o1` (configuration not stated), the activation was inconclusive: 3.45%.
In the case of `CCc1nc(N2CCN(C(=O)c3ccco3)CC2)c2c3c(sc2n1)CCCC3`, the activation is reported as active: 499%.
For `CNNC(=O)C(C)NC(=O)c1ccc(Br)cc1` (configuration not stated), the activation was active: 38.4%.
In the case of `Cc1ccnc(NS(=O)(=O)c2cc([N+](=O)[O-])ccc2C)c1`, the activation is reported as inconclusive: 8.76%.
In the case of `Cn1ncc(Br)c1C(=O)OCC(=O)Nc1nc(-c2ccccc2)cs1`, the activation is reported as inconclusive: 6.46%.
For `COc1ccc(C(CC(=O)NCc2ccccc2)Sc2n[nH]c(-c3ccccc3)n2)cc1` (configuration not stated), the activation was inconclusive: 8.12%.
For `COc1ccc(OC)c2sc(N3CCN(C(=O)c4ccc5ncsc5c4)CC3)nc12`, the activation was inconclusive: 5.88%.
In the case of `COc1ccc(C(=O)NCCCOC(=O)c2ccc(OC)cc2)cc1`, the activation is reported as inconclusive: 7.52%.
For `CCSc1nc(NCCN(C)C)c2c3c(sc2n1)COC(C)(CC)C3` (configuration not stated), the activation was inconclusive: 5.67%.
In the case of `O=C1NC2(CCCCC2)NN1c1ccccc1`, the activation is reported as inactive: -0.209%.
In the case of `O=C(O)/C=C/c1cnn(-c2ccccc2)c1`, the activation is reported as inconclusive: 3.7%.
With `COc1cccc(OCc2cc(C(=O)N3CCN(c4ccccc4OC)CC3)no2)c1` the activation was inconclusive: 8.67%.
With `CCC(=O)NC(c1ccc(C)cc1)c1ccc2cccnc2c1O` (configuration not stated) the activation was active: 97.5%.
In the case of `c1ccc2c(NCCc3c[nH]c4ccccc34)c3ccccc3nc2c1`, the activation is reported as active: 13%.
With `CCCCn1c(N)c(N(CC)C(=O)c2cc(OC)cc(OC)c2)c(=O)[nH]c1=O` the activation was inconclusive: 5.78%.
With `Cc1ccc(C)c(SCC(=O)OCC(=O)N2CC(C)OC(C)C2)c1` (configuration not stated) the activation was inconclusive: 4.86%.
For `COc1ccc(N2CCN(C(=O)C3COc4ccccc4O3)CC2)cc1` (configuration not stated), the activation was inconclusive: 5.19%.
For `CN(C1CCCC1)C1CCN(C(=S)Nc2cc(F)cc(F)c2)CC1`, the activation was inconclusive: 7.33%.
With `Oc1ccc(/C=N/NC(=S)NC2CC3CCC2C3)cc1` (configuration not stated) the activation was inconclusive: 7.72%.
For `COc1cc(NC(=O)CN2C(=O)c3ccccc3Sc3ccc(C(=O)N4CCOCC4)cc32)cc(OC)c1OC`, the activation was inconclusive: 8.36%.
For `COc1ccccc1C(=O)Nc1ccccc1SC(=O)c1ccccc1OC`, the activation was inconclusive: 9.45%.
In the case of `C(/CCc1ccccc1)=N\Nc1nc2ccccc2[nH]1`, the activation is reported as inconclusive: 7.5%.
In the case of `CCCCOC(=O)c1ccc(NC(=S)NC(=O)c2c(Br)c(C)nn2C)cc1`, the activation is reported as active: 40.7%.
For `C/C(=N\O)C(=O)Nc1ccccc1`, the activation was active: 231%.
In the case of `O=C(N/N=C/c1cc(Cl)ccc1O)c1ccccc1Br`, the activation is reported as active: 10.4%.
For `O=C(N/N=C/c1cc([N+](=O)[O-])ccc1O)c1cccc2ccccc12`, the activation was active: 11.1%.
With `COc1ccc(/C=N/NC(=O)c2ccccc2O)cc1CSc1ccccn1` the activation was active: 197%.
For `O=C(CSCc1ccc([N+](=O)[O-])cc1)NC1CCCCCC1`, the activation was inactive: -0.00786%.
For `Cn1c(O)c(/C=N/NC(=O)c2cc3ccccc3cc2O)c2ccccc21`, the activation was inconclusive: 5.65%.
With `Cc1ccc(-c2cc(C(=O)Nc3cccnc3)[nH]n2)c(O)c1C` the activation was inconclusive: 8.54%.
In the case of `COc1ccc(-n2nc(C(=O)NCC(=O)N3CCN(c4ccccn4)CC3)c3ccccc3c2=O)cc1OC`, the activation is reported as inactive: 1.94%.
In the case of `Cc1cc(OC(C)C(=O)NNC(=O)Nc2ccc(F)cc2F)cc(C)c1Cl` (configuration not stated), the activation is reported as inconclusive: 8.49%.
In the case of `COc1ccc(O)c(/C=N/NC(=O)c2ccc(OCc3cccc(Br)c3)cc2)c1`, the activation is reported as active: 15.7%.
With `CCn1cc(CN2CCCC(CO)(Cc3cccc(Cl)c3)C2)cn1` (configuration not stated) the activation was inactive: -0.121%.
For `COc1ccc(CCNC(=O)c2cc([N+](=O)[O-])ccc2N2CCOCC2)cc1`, the activation was inactive: 0.441%.
In the case of `COc1ccc(OC)c(CNc2ccc([N+](=O)[O-])cc2C)c1`, the activation is reported as inactive: -0.631%.
With `CCOCC(=O)Nc1ccc(S(=O)(=O)N2CCC(c3nc4ccccc4[nH]3)CC2)cc1` the activation was inconclusive: 5.4%.
With `O=C(Nc1ccc2ccccc2c1)c1ccc(Cl)cc1Cl` the activation was inactive: -11.6%.
For `CC12CC3(C)CC(C)(C1)CC(C(=O)NCCc1ccc(S(N)(=O)=O)cc1)(C2)C3`, the activation was inconclusive: 4.93%.
With `NC(=O)CSc1nnc2ccc(-c3ccc(Cl)cc3)nn12` the activation was inconclusive: 8.32%.
With `COC(=O)c1ccc(COc2ccccc2/C=N/NS(=O)(=O)c2ccccc2)cc1` the activation was inconclusive: 7.43%.
In the case of `CCCc1ccc(Oc2cc(NN3CCCCC3)c([N+](=O)[O-])cc2[N+](=O)[O-])cc1`, the activation is reported as inactive: -0.265%.
In the case of `c1ccc(CSc2nnc(-c3ccco3)o2)cc1`, the activation is reported as inconclusive: 6.91%.
With `Cc1ccc2sc(N3CCN(C(=O)c4ccc([N+](=O)[O-])o4)CC3)nc2c1C` the activation was inactive: 0.0321%.
In the case of `O=C(CSc1nnc(CNC(=O)c2cccs2)o1)Nc1cccc(C(F)(F)F)c1`, the activation is reported as inconclusive: 5.31%.
With `COc1ccc(C/C(C)=N/NS(=O)(=O)c2ccc(Br)cc2)cc1` the activation was inconclusive: 6.87%.
With `CC(C)N(C(C)C)S(=O)(=O)c1ccc(N2CCc3ccccc3C2)nc1` the activation was inconclusive: 8.24%.
In the case of `C=C(C)Cn1c(CCNC(=O)C(C)C)nc2ccccc21`, the activation is reported as inconclusive: 3.98%.
With `O=C(COC(=O)c1cccc(S(=O)(=O)N2CCOCC2)c1)Nc1ncc(C(F)(F)F)cc1Cl` the activation was inconclusive: 6.93%.
With `CCc1ccc(NC(=O)COC(=O)c2cccs2)cc1` the activation was inconclusive: 6.69%.
With `COc1ccc2nc(NC(=O)C3CCN(S(=O)(=O)c4cccs4)CC3)sc2c1` the activation was inactive: -0.542%.
With `CC(=O)N1c2ccc(S(=O)(=O)N3CCC(C(=O)NCc4ccc(C)cc4)CC3)cc2CC1C` (configuration not stated) the activation was inactive: -0.27%.
In the case of `COc1ccc(/C=N/NC(=O)c2cnccn2)cc1O`, the activation is reported as inactive: 1.64%.
In the case of `Cc1cc(=O)oc2cc(OCC(=O)N3CCN(c4ccc(F)cc4)CC3)ccc12`, the activation is reported as inconclusive: 5.37%.
With `COc1ccc2ccccc2c1/C=N/Nc1cccc(C(=O)O)c1` the activation was inconclusive: 7%.
In the case of `Cc1ccc(C2(C)NC(=O)N(CC(=O)Nc3ccccc3N3CCCC3)C2=O)cc1` (configuration not stated), the activation is reported as inconclusive: 5.71%.
In the case of `Cc1ccccc1OCC(=O)Nc1ccc(N2CCN(C)CC2)c(Cl)c1`, the activation is reported as inconclusive: 8.54%.
With `CC(OC(=O)COc1ccc(Nc2ccccc2)cc1)C(=O)N(C)c1ccccc1` (configuration not stated) the activation was inconclusive: 4.98%.
In the case of `CCCCCN(C(=O)CCC(=O)OCC(=O)c1ccc(C(C)CC)cc1)c1c(N)n(CCCC)c(=O)[nH]c1=O` (configuration not stated), the activation is reported as inconclusive: 6.29%.
In the case of `Cc1ccc(C(=O)NC(=S)NNS(=O)(=O)c2ccc(C)cc2)cc1`, the activation is reported as inconclusive: 9.2%.
For `CCOc1nc(Nc2ccc(OC)cc2)nc(OCC)n1`, the activation was inconclusive: 3.88%.
